From the supplement of paper PMC11732987, “Enantioselective OTUD7B fragment discovery through chemoproteomics screening and high-throughput optimisation” (Communications Chemistry, 2025)
The list shows a part of the results. The data scatter; read single values as rough.

Tests used:
[1] = compound: ClCC(=O)N[C@@H]1CCCc2ccccc12; test: log2 mean competition ratio of IA-DTB cysteine labelling (DMSO/compound) (log2 ratio); higher = stronger cysteine engagement by compound; settings: treatment time: 4 h, cell line lysate: HEK293T
Procedure: (§1)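 IA-DTB competitive cysteine chemoproteomics in HEK293T RIPA lysate. Lysates were treated with compound 29 or 30 at 50 or 200 µM for 4 h, then IA-DTB (500 µM, 1 h), trypsin-digested, NeutrAvidin-enriched and analysed by diaPASEF. Competition ratio = intensity DMSO / intensity compound (n=4 treated, n=64 DMSO); binding: mean log2 CR ≥ 1 and p ≤ 0.05 plus QC filters. Target is the cysteine site.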

[2] = compound: ClCC(=O)N[C@H]1CCCc2ccccc12; test: as above; settings: treatment time: 4 h, cell line lysate: HEK293T
Procedure: as §1

Target	log2 mean competition ratio ([1]; 50 µM)	log2 mean competition ratio ([1]; 200 µM)	log2 mean competition ratio ([2]; 50 µM)	log2 mean competition ratio ([2]; 200 µM)
NR2C2AP C7 (UniProt Q86WQ0)	0.185	1.1	5.48	–
OGFR C330 (UniProt Q9NZT2)	0.0478	-0.275	0.146	-0.224
NUDT12 C18 (UniProt Q9BQG2)	0.0451	0.0746	-0.271	-0.146
NRDE2 C203 (UniProt Q9H7Z3)	0.0638	-0.0843	0.338	0.00999
NR2C1 C200 (UniProt P13056)	-0.225	-0.0702	-0.171	0.156
NOVA2 C21	0.00979	0.0575	-0.281	-0.00413
NUP188 C976 (UniProt Q5SRE5)	0.546	-0.765	0.5	-0.711
NUF2 C377 (UniProt Q9BZD4)	-0.166	0.281	-0.137	0.116
NUP37 C311 (UniProt Q8NFH4)	0.0688	-0.317	-0.593	-0.328
NUMA1 C1673 (UniProt Q14980)	-0.173	-0.126	-0.143	0.173
NUS1 C164 (UniProt Q96E22)	-0.378	0.37	-0.213	0.197
NUP85 C112 (UniProt Q9BW27)	0.0498	-0.0792	-0.839	-0.338
NUP50 C181 (UniProt Q9UKX7)	0.537	0.0835	0.334	0.00288
NUMA1 C658 (UniProt Q14980)	-0.219	-0.308	-0.136	-0.356
NUS1 C287 (UniProt Q96E22)	-0.0171	0.393	-0.00664	-0.0408
NTAN1 C118 (UniProt Q96AB6)	-0.235	-0.0738	-0.0624	-0.215
OTUB1 C91 (UniProt Q96FW1)	0.0757	0.109	0.268	0.0588
ORC1 C506 (UniProt Q13415)	0.208	0.0883	0.238	-0.00199
NUP98 C1735 (UniProt P52948)	0.25	-0.12	-0.0375	-0.0437
OBI1 C105 (UniProt Q5W0B1)	0.118	0.454	-0.374	-0.181
NSUN2 C184 (UniProt Q08J23)	-0.127	0.113	-0.19	0.164
OBI1 C432 (UniProt Q5W0B1)	-0.018	0.146	0.178	-0.0501
NSD1 C615 (UniProt Q96L73)	-0.139	-0.123	0.185	0.173
NUP62 C475 (UniProt P37198)	0.0914	-0.0575	0.997	-0.403

Target	log2 mean competition ratio ([1]; 50 µM)	log2 mean competition ratio ([1]; 200 µM)	log2 mean competition ratio ([2]; 50 µM)	log2 mean competition ratio ([2]; 200 µM)
NUDCD1 C111 (UniProt Q96RS6)	-0.0982	0.103	-0.359	0.179
NUP205 C1227 (UniProt Q92621)	-0.0114	0.0409	0.151	0.0219
NSUN6 C242 (UniProt Q8TEA1)	-0.11	0.086	-0.0926	0.028
NSL1 C224 (UniProt Q96IY1)	0.517	-0.0518	0.315	-0.0285
OAS3 C850 (UniProt Q9Y6K5)	-0.382	-0.0642	-0.246	-0.329
NT5DC1 C119 (UniProt Q5TFE4)	0.277	0.184	0.359	0.143
NOTCH2 C1357 (UniProt Q04721)	-0.0919	0.203	0.168	0.405
NUMBL C147 (UniProt Q9Y6R0)	-0.0836	0.119	0.00433	0.0629
NUP98 C1711 (UniProt P52948)	0.0227	0.398	-0.654	0.187
NOTCH2 C264 (UniProt Q04721)	0.0359	0.151	0.304	0.469
OSBPL1A C520 (UniProt Q9BXW6)	-0.228	-0.419	-0.637	-0.422
NXF1 C143 (UniProt Q9UBU9)	0.819	0.546	-0.0184	-0.0661
NUP93 C392 (UniProt Q8N1F7)	-0.0121	-0.16	0.209	-0.0834
NRBP1 C307 (UniProt Q9UHY1)	-0.222	-0.406	-0.243	-0.336
OBSL1 C362 (UniProt O75147)	-0.235	0.25	-0.295	0.316
OBI1 C321 (UniProt Q5W0B1)	0.0705	0.13	0.15	0.307
NSA2 C253 (UniProt O95478)	0.0153	-0.28	0.26	-0.0621
NSUN6 C291 (UniProt Q8TEA1)	0.0323	0.156	-0.146	0.0807
OFD1 C766 (UniProt O75665)	-0.00822	-0.0181	0.493	-0.118
NUP98 C1727 (UniProt P52948)	-0.133	-0.152	0.166	-0.195
NUDCD1 C376 (UniProt Q96RS6)	-0.0986	-0.00564	-0.138	-0.0281
OSGEPL1 C46 (UniProt Q9H4B0)	-0.0998	-0.225	0.388	-0.314
NPLOC4 C188	-0.118	0.0304	-0.19	0.0224
NT5DC1 C179 (UniProt Q5TFE4)	-6.11e-05	-0.388	-0.221	-0.301

Target	log2 mean competition ratio ([1]; 50 µM)	log2 mean competition ratio ([1]; 200 µM)	log2 mean competition ratio ([2]; 50 µM)	log2 mean competition ratio ([2]; 200 µM)
NVL C431 (UniProt O15381)	0.0325	0.104	0.26	0.275
NSD2 C1315 (UniProt O96028)	0.19	0.254	-0.0847	0.161
NUF2 C111 (UniProt Q9BZD4)	0.086	0.744	-0.32	0.841
NRDE2 C1088 (UniProt Q9H7Z3)	0.0944	0.0179	0.234	0.0883
NSRP1 C171 (UniProt Q9H0G5)	0.0873	0.112	-0.4	0.0211
NT5DC1 C197 (UniProt Q5TFE4)	-0.108	-0.666	-0.123	-0.963
OGA C166 (UniProt O60502)	0.584	0.412	0.085	0.344
NUP37 C149 (UniProt Q8NFH4)	-0.252	0.0824	-0.274	-0.056
NUBP1 C31 (UniProt P53384)	-0.169	0.033	-0.735	0.0666
NUP160 C135 (UniProt Q12769)	-0.0867	-0.385	0.251	-0.448
NSUN2 C93 (UniProt Q08J23)	0.122	-0.19	0.191	-0.204
NUP93 C422 (UniProt Q8N1F7)	0.136	-0.0645	0.535	0.00122
ORC3 C639 (UniProt Q9UBD5)	-0.0799	-0.0462	0.217	-0.167
NUDCD2 C45 (UniProt Q8WVJ2)	-0.174	-0.2	-0.366	-0.289
OCRL C428 (UniProt Q01968)	-0.0336	-0.19	-0.407	-0.211
NUP98 C1027 (UniProt P52948)	-0.136	0.07	-0.209	0.153
OBSL1 C581 (UniProt O75147)	0.287	-0.348	0.77	-0.226
NUMA1 C1367 (UniProt Q14980)	0.088	-0.276	0.114	-0.0984
OLA1 C187 (UniProt Q9NTK5)	-0.0776	0.119	-0.0273	0.135
NUFIP2 C234 (UniProt Q7Z417)	0.0524	-0.167	-0.22	-0.0131
NSD3 C495 (UniProt Q9BZ95)	0.084	-0.198	0.3	-0.292
OAS3 C574 (UniProt Q9Y6K5)	0.0185	0.0707	0.197	-0.0428
OSBPL11 C153 (UniProt Q9BXB4)	0.235	-0.378	0.154	-0.541
NR2F2 C314 (UniProt P24468)	0.0478	0.13	0.183	8.77e-05

Whole records, quoted from the list. Values in the order: log2 mean competition ratio ([1]; 50 µM) | log2 mean competition ratio ([1]; 200 µM) | log2 mean competition ratio ([2]; 50 µM) | log2 mean competition ratio ([2]; 200 µM)
NUP37 C149 (UniProt Q8NFH4) in the list: -0.252 | 0.0824 | -0.274 | -0.056
OCRL C428 (UniProt Q01968) in the list: -0.0336 | -0.19 | -0.407 | -0.211
NUMA1 C1367 (UniProt Q14980) in the list: 0.088 | -0.276 | 0.114 | -0.0984

(listing goes on)

Target	log2 mean competition ratio ([1]; 50 µM)	log2 mean competition ratio ([1]; 200 µM)	log2 mean competition ratio ([2]; 50 µM)	log2 mean competition ratio ([2]; 200 µM)
OSBP C224 (UniProt P22059)	-0.316	0.137	-0.306	0.078
NUB1 C400	0.0323	-0.111	-0.102	-0.182
NOTCH2 C1250 (UniProt Q04721)	-0.106	0.868	0.221	0.611
NR2C1 C185 (UniProt P13056)	-0.141	0.29	0.146	0.0587
OAT C150 (UniProt P04181)	-0.025	0.0767	0.219	0.0849
NUMBL C161 (UniProt Q9Y6R0)	0.554	0.402	0.818	0.469
NPAT C551 (UniProt Q14207)	-0.107	-0.1	-0.0388	-0.158
NSUN6 C415 (UniProt Q8TEA1)	0.246	0.282	0.28	0.286
OGDH C395 (UniProt Q02218)	-0.121	-0.121	-0.269	-0.0928
NSD1 C622 (UniProt Q96L73)	0.0325	0.207	-0.261	0.118
NSMCE2 C140 (UniProt Q96MF7)	0.0892	0.0386	0.169	0.172
OSGEP C277 (UniProt Q9NPF4)	0.216	-0.376	0.148	-0.225
OPA1 C801 (UniProt O60313)	-0.176	0.0411	-0.533	-0.0674
NUP205 C1486 (UniProt Q92621)	-0.0925	-0.174	-0.0968	-0.0767
ORC1 C469 (UniProt Q13415)	0.166	0.147	0.208	0.112
NUP155 C917 (UniProt O75694)	0.0384	-0.135	0.157	-0.107
NUP153 C1129 (UniProt P49790)	-0.0545	0.0408	0.212	-0.118
NR2F1 C122	0.369	-0.0178	0.122	0.112
ODF2 C118 (UniProt Q5BJF6)	-0.189	0.656	-0.0745	0.426
NUBP2 C54 (UniProt Q9Y5Y2)	-0.219	0.229	-0.416	0.321
NSD2 C406 (UniProt O96028)	0.0522	0.155	-0.369	0.0534
NUP205 C698 (UniProt Q92621)	0.0456	-0.0145	-0.206	0.0571
OBI1 C458 (UniProt Q5W0B1)	0.34	0.142	0.0202	0.17
